Results: US20110009314A1, “Single-Chain Insulin Analogues and Pharmaceutical Formulations Thereof” (Novo Nordisk A/S, priority 2006, published 2011)
Not every detail of the peptide structures is certain; ends, links or a residue may be inferred. Bridges are numbered along the chain shown (N, C = ends). Where no end group is shown, it is not given here.

Test: Size exclusion chromatography (SEC, gelfiltration) migration of insulin analogues and mixtures relative to the standards X2 (monomer) and HSA
Format: physicochemical

Sequence: FVNQHLCGSQLVEALYLVCGERGFFYTEKTGLGSGKGIVEQCCTSICSLYQLEQYCN (disulfide 7-43, 19-56, 42-47) [Compound A, B(1-29)-B10Gln-B28Glu-TGLGSGK(SEQ ID NO:)-A(1-21)-A18Gln human insulin]
- Measured SEC migration % HSA (A 0.6 mM): 0%
- Measured SEC migration % X2 (A 0.6 mM): 100%
- Theoretical SEC Migration % HSA or aggregate (A 0.6 mM): 0%
- Theoretical SEC Migration % X2 (A 0.6 mM): 100%
- Reverse phase HPLC identification of the insulins in gelfiltration fractions (mixture of the single-chain insulin with insulin detemir, FIG. 1 lower curve): only found in the monomeric fraction
- Aggregation state in gelfiltration (uv trace) (mixture of the single-chain insulin with insulin detemir, FIG. 1 upper curve): monomeric in gelfiltration after mixing

Sequence: GVQQHLCGSQLVEALYLVCGERGFFYTEKTGLGSGKGIVEQCCTSICSLYQLEQYCG (disulfide 7-43, 19-56, 42-47) [Compound B, B(1-29)-B1Gly-B3Gln-B10Gln-B28Glu-TGLGSGK(SEQ ID NO:)-A(1-21)-A18Gln-A21Gly human insulin]
- Measured SEC migration % HSA (B 0.6 mM): 0%
- Measured SEC migration % X2 (B 0.6 mM): 100%
- Theoretical SEC Migration % HSA or aggregate (B 0.6 mM): 0%
- Theoretical SEC Migration % X2 (B 0.6 mM): 100%
